From publication PMC9985596 come the findings set out here.

Protein sequences, listed by entry. Tags and fused reporters are not part of them.
UniProt P53396: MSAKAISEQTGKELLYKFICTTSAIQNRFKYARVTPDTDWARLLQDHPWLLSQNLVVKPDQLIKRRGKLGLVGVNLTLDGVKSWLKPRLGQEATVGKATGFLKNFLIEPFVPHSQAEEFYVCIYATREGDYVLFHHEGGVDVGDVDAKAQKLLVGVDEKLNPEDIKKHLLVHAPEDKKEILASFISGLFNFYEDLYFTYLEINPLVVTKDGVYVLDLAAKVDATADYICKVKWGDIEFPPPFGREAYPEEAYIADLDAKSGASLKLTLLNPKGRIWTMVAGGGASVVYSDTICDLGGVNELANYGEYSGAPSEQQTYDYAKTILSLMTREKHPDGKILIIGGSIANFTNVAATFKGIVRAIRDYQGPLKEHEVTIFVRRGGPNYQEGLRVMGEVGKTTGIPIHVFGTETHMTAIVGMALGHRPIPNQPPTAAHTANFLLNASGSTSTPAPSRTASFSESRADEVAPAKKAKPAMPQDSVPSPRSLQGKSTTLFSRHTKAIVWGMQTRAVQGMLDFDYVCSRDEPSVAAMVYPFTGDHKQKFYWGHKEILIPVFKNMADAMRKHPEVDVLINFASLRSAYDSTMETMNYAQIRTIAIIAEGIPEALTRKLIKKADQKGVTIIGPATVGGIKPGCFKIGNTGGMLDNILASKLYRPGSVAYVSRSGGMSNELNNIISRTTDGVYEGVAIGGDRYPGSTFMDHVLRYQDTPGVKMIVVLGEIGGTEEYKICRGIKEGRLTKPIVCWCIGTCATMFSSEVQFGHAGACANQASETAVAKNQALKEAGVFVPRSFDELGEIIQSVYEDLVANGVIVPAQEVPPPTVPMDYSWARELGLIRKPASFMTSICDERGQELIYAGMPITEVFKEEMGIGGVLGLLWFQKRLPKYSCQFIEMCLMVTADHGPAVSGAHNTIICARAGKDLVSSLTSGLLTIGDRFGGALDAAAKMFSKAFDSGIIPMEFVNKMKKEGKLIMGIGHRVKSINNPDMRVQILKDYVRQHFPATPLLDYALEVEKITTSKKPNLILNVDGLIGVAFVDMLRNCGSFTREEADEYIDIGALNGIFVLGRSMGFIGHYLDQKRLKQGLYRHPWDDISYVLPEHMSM
UniProt O43684: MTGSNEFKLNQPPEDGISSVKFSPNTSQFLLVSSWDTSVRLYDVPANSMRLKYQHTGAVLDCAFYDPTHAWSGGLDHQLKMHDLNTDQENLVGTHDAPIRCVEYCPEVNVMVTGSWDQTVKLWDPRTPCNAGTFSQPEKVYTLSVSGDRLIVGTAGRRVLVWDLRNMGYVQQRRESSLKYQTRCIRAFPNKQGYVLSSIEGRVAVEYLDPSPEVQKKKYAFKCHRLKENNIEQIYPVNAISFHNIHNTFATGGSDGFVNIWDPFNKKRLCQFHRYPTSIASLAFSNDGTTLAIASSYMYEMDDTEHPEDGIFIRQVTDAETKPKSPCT
UniProt P22314: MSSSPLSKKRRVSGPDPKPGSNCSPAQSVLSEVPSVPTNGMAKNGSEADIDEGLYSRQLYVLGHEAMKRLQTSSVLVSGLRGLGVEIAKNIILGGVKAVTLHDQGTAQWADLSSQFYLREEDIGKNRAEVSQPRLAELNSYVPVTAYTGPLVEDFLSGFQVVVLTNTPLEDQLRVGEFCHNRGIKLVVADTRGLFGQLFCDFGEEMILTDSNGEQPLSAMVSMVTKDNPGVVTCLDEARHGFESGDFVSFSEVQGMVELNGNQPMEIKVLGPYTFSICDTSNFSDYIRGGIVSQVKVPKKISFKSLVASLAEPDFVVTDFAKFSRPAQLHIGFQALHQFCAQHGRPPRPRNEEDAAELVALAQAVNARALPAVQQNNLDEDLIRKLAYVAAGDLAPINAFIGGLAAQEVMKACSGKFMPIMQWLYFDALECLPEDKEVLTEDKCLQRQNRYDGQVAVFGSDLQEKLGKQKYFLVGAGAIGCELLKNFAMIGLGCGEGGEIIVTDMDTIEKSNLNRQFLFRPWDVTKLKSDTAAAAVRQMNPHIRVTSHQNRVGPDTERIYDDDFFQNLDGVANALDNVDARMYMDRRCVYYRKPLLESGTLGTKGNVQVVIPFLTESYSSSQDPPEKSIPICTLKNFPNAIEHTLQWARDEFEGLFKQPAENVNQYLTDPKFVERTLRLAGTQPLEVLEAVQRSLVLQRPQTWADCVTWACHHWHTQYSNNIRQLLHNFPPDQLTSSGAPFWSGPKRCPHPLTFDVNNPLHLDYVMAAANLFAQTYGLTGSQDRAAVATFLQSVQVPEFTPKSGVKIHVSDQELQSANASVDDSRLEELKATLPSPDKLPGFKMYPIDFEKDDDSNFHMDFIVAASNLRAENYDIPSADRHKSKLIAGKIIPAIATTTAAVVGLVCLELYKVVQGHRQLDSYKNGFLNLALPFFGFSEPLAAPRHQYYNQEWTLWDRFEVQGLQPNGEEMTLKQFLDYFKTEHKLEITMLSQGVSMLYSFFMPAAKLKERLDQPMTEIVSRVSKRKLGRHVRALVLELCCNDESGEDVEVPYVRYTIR

Results are given in words; binding and its absence hold for the method and conditions named. Binding seen in cells or lysates may run through a third protein. Here binding means that the protein was enriched with, or labelled near, the bait; the list need not be complete. Sequences can lack the tags named with a protein.

For this assay, the target named is T1, FLAG-tagged RECQ4 wild type (human) (UniProt O94761).
T1 sequence: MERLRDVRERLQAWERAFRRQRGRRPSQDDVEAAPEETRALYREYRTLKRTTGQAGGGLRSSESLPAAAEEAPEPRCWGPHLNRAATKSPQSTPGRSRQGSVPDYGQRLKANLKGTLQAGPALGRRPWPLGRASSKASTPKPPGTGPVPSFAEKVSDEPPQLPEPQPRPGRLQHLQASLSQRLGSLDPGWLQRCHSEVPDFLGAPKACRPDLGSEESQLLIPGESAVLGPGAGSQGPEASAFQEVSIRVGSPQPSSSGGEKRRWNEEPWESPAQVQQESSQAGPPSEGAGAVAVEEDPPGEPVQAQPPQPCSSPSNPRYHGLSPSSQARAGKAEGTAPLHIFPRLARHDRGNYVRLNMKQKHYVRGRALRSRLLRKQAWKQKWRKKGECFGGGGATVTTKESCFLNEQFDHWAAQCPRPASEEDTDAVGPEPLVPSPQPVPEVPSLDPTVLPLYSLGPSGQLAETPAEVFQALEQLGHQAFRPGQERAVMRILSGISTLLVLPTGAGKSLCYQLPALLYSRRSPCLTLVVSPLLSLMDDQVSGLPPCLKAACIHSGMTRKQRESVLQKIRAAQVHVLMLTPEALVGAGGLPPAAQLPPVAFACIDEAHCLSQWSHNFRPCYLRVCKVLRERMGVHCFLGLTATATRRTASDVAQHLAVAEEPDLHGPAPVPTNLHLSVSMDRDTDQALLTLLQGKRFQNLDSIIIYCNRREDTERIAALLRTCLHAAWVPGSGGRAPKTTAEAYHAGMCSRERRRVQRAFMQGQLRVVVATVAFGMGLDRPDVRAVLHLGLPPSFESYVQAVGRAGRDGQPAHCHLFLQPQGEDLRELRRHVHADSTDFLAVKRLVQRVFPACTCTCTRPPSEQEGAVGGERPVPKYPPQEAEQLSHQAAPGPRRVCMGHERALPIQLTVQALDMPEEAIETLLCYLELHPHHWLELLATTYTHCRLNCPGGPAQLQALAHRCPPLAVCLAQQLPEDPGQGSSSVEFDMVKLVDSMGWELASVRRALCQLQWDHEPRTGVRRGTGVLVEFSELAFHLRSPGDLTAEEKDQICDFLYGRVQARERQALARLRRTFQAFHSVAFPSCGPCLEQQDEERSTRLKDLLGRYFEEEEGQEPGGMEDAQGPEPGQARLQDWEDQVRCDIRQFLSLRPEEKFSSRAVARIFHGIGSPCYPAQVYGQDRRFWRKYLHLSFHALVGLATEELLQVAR
Put plainly: affinity purification with mass spectrometry; FLAG-RECQ4 WT or Q757X immunopurified on anti-FLAG M2 agarose from benzonase-solubilised chromatin-bound (CB) fractions of stable RECQ4 KD HEK293 cells; overnight at 4 C; washes with 0.3 M NaCl, 0.2% Triton X-100; n = 1.
As for “ATP citrate lyase (ACLY) (from UniProt P53396 1-1101) (enzyme)”, the binding result was “binds”.

Turning to “mitotic checkpoint protein BUB3 (from UniProt O43684 1-328)”, the binding result is “binds”.

As to “ubiquitin-activating enzyme E1 homolog A (UBA1) (from UniProt P22314 1-1058)”, the binding result was “binds”.
